No constants are given. Whether binding was seen depends on the method and setting. Some results given as binding are weak or reduced against the parent protein; the word gives no strength. Sequences can lack the tags named with a protein.
Biological target: T1, ephrin B1 (wild-type, full-length) (UniProt P98172)
T1 sequence (looked up): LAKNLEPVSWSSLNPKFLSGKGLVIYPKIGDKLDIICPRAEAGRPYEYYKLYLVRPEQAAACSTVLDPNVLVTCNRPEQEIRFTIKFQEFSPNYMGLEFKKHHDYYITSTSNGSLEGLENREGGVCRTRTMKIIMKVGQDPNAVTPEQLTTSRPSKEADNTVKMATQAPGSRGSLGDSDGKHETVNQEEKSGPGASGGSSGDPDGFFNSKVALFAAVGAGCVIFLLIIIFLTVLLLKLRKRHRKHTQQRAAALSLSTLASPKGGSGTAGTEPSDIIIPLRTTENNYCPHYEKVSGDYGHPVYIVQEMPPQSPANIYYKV
Assay: GST mix with GST fusions of syntenin fragments, anti-ephrin B1 immunoblot

binding: binds
B1: GST-syntenin PDZ 1+2 (residues 101-299) (protein, mouse, UniProt O08992 101-299, looked up, not shown: a dimerising Fc or GST)
chain: DAGIRRAEIKQGIREVILCKDQDGKIGLRLKSIDNGIFVQLVQANSPASLVGLRFGDQVLQINGENCAGWSSDKAHKVLKQAFGEKITMTIRDRPFERTVTMHKDSSGHVGFIFKSGKITSIVKDSSAARNGLLTDHHICEINGQNVIGLKDAQIADILSTAGTVVTITIMPTFIFEHIIKRMAPSIMKSLMDHTIPEV
